Test results published in PubChem BioAssay (NCATS).
The shares of active, inactive and inconclusive entries below differ from those in the screen. A potency beside an inconclusive call is a rough fit, not a confirmed value. Active and inactive are the calls of the source. Calls follow the shape of the dose curve; as a rule, active = well fitted cell-killing curve with a large enough effect; inconclusive = small, poorly fitted or top-dose-only effect, or effect the other way; inactive = no such curve, though single readings can be large or run the other way.

Test: Quantitative High-Throughput drug screen in 47 multiple myeloma cell lines against the NCATS MIPE library collection: KMS12PE_JCRB cell viability assay (AID 1918972); also: nearly all actives have a fitted effect of over 30% in size
Settings: KMS12PE myeloma viability, CellTiter-Glo ATP, 48 h; viability: at 45.8 µM (top of the series)
Text: PI: Beverly A. Mock Ph.D.
Laboratory of Cancer Biology and Genetics,
Center for Cancer Research, National Cancer Institute,
National Institute of Health, Bethesda, Maryland
Drug resistance and disease progression are common in multiple myeloma (MM) patients, underscoring the need for new therapeutic combinations. […] We hypothesized that effective combinations would reduce MYC expression and enhance p16 activity. […] These preclinical data identify potentially useful drug combinations for evaluation in drug-resistant MM and reveal potential mechanisms of combined drug sensitivity.
Described herein is the primary MIPE qHTS used to cherrypick compounds. Validated compounds were then further tested for potential synergistic activiy.
[1] Peat TJ, Gaikwad SM, Dubois W, Gyabaah-Kessie N, Zhang S, Gorjifard S, Phyo Z, Andres M, Hughitt VK, Simpson RM, Miller MA, Girvin AT, Taylor A, Williams D, D'Antonio N, Zhang Y, Rajagopalan A, Flietner E, Wilson K, Zhang X, Shinn P, Klumpp-Thomas C, McKnight C, Itkin Z, Chen L, Kazandijian D, Zhang J, Michalowski AM, Simmons JK, Keats J, Thomas CJ, Mock BA. Drug combinations identified by high-throughput screening promote cell cycle transition and upregulate Smad pathways in myeloma. Cancer Lett. 2023 Aug 1;568:216284. doi: 10.1016/j.canlet.2023.216284. Epub 2023 Jun 24. PMID: 37356470; PMCID: PMC10408729.
SEQUENCE No. (e.g., 1, 2, 3, etc.); […] (e.g., Cells, Incubation, Reagent, etc.); VALUE and DESCRIPTION.
1; Cells; 5 uL; white, solid bottom 1536-well Greiner assay plate.
2; Compounds; 23 nL; Kalypsis pin tool (Wako USA) equipped with a 1536-well pin head to transfer to the assay plates.
3; Incubation; 48 hours; 37C incubation.
4; Reagent;5uL; CellTiter Glo (Promega).
5; Detector; 425V; Luminescence; Viewlux PerkinElmer.
NOTES (numbers refer to Sequence numbers above)
1. The cell-based screening methods employed in this study were like those previously published. Briefly, the corresponding myeloma cell lines were screened in 1,536-well plates with 500 cells, 5-uL per well for inhibition of cell viability (assessed by measuring ATP levels with CellTiterGlo).
2. NCATS MIPE 4.0 library of approved and investigational drugs were added using the Kalypsis pin tool. Wells treated with DMSO only for 100% viability and media only wells for 0% viability were used as controls.
3. The assay plates were covered and incubated for 48 hours in a 37C, 5% CO2 incubator with controlled humidity.
4. After 48 hours, CellTilter-GloTM luminescent substrate mix (Promega) reagent was added to the assay plate and plates we incubated for 5 min at room temperature.
5. Signal was measured as median relative luminescence units on a ViewLux (PerkinElmer) multiplate reader.
[1] Heske CM, Davis MI, Baumgart JT, Wilson K, Gormally MV, Chen L, Zhang X, Ceribelli M, Duveau DY, Guha R, Ferrer M, Arnaldez FI, Ji J, Tran HL, Zhang Y, Mendoza A, Helman LJ, Thomas CJ. Matrix Screen Identifies Synergistic Combination of PARP Inhibitors and Nicotinamide Phosphoribosyltransferase (NAMPT) Inhibitors in Ewing Sarcoma. Clin Cancer Res. 2017 Dec 1;23(23):7301-7311. doi: 10.1158/1078-0432.CCR-17-1121. Epub 2017 Sep 12. PMID: 28899971; PMCID: PMC6636827.
Potency is read from the fitted curve at half-maximal effect.

| SMILES | Potency | viability |
| --- | --- | --- |
| O=C(Nc1cccc(Cl)c1)Nc1ncc(CCNc2ncnc3ccsc23)s1 | active: 0.662 µM | – |
| COc1cc(CNC(=O)CCCCC=CC(C)C)ccc1O | – | inactive: 80.3% |
| Nc1nc(=S)c2[nH]cnc2[nH]1 | inconclusive: 0.0059 µM [rising, full curve, poor fit] | – |
| CC(=O)O[C@@]12CO[C@H]1C[C@H](O)[C@@]1(C)C(=O)[C@H](O)C3=C(C)[C@@H](OC(=O)C(O)[C@@H](NC(=O)OC(C)(C)C)c4ccccc4)C[C@@](O)([C@@H](OC(=O)c4ccccc4)[C@@H]21)C3(C)C (stereo not given in full) | inconclusive: 20.9 µM [cytotoxic, partial curve] | – |
| O=C(O)C(=O)Nc1cccc(C2=NN=N[N]2)c1 | – | inactive: 101% |
| Cc1cccc(N(C)C(=S)Oc2ccc3ccccc3c2)c1 | inconclusive: 18.7 µM [cytotoxic, partial curve] | – |
| C[C@H]1O[C@H](O[C@H]2[C@H](O)[C@@H](O)[C@@H](O[C@H]3[C@H](O)[C@@H](O)C(O)O[C@H]3CO)O[C@H]2CO)[C@H](O)[C@@H](O)[C@H]1N[C@H]1C=C(CO)[C@@H](O)[C@H](O)[C@@H]1O (stereo not given in full) | inconclusive: 37.2 µM [cytotoxic, single point] | – |
| Cc1cccc(-c2[nH]c(C(C)(C)C)nc2-c2ccc3c(c2)OCO3)n1 | active: 3.72 µM | – |
| C[C@@H](NC(=O)c1ncnc(N)c1Cl)c1ncc(C(=O)Nc2cc(C(F)(F)F)c(Cl)cn2)s1 | inconclusive: 37.2 µM [cytotoxic, single point] | – |
| Cc1cc(Nc2cc(N3CCN(C)CC3)nc(C=Cc3ccccc3)n2)n[nH]1 | inconclusive: 3.4 µM [cytotoxic, full curve, poor fit] | – |
| Nc1c2c(nc3ccccc13)CCCC2 | – | inactive: 106% |
| Cc1[nH]c(C=C2C(=O)Nc3ccc(S(=O)(=O)N(C)c4cccc(Cl)c4)cc32)c(C)c1C(=O)N1CCN(C)CC1 | active: 7.43 µM | – |
| O=C(Nc1ncc(SCCN2CCCC2)s1)[C@]1(c2ccc(S(=O)(=O)C3CC3)cc2)C[C@@H]1C1CCCCC1 | active: 5.26 µM | – |
| COc1ccc(-c2cc(=O)c3c(O)cc(O[C@@H]4O[C@H](CO[C@@H]5O[C@@H](C)[C@H](O)[C@@H](O)[C@@H]5O)[C@@H](O)[C@H](O)[C@@H]4O)cc3o2)cc1O | – | inactive: 126% |
| C=CC(=O)Nc1cc2c(Nc3ccc(F)c(Cl)c3)ncnc2cc1OCCCN1CCOCC1 | inconclusive: 2.09 µM [cytotoxic, full curve, poor fit] | – |
| COc1cc2c(Nc3ccc(NC(=O)c4ccccc4)cc3)ncnc2cc1OCCCN1CCOCC1 | inconclusive: 5.26 µM [cytotoxic, full curve] | – |
| CC1=NN(c2ccccc2)C(=O)C1 | – | inactive: 112% |
| C[C@]12C=CC(=O)C=C1CC[C@@H]1[C@@H]2C(=O)C[C@@]2(C)[C@H]1CC[C@]2(O)C(=O)CO | – | inactive: 150% [at 23.2 µM] |
| CC(C)(Sc1ccc(CCN(CCCCC2CCCCC2)C(=O)NC2CCCCC2)cc1)C(=O)O | inconclusive: 1.66 µM [cytotoxic, partial curve, poor fit] | – |
| C[C@H](c1ccc(F)cc1CCCC(=O)O)N(c1cc(F)ccc1F)S(=O)(=O)c1ccc(Cl)cc1 | – | inactive: 99.4% |

Three compounds from above, arranged by molecular weight, largest number first:

| SMILES | Potency | viability |
| --- | --- | --- |
| COc1ccc(-c2cc(=O)c3c(O)cc(O[C@@H]4O[C@H](CO[C@@H]5O[C@@H](C)[C@H](O)[C@@H](O)[C@@H]5O)[C@@H](O)[C@H](O)[C@@H]4O)cc3o2)cc1O | – | inactive: 126% |
| CC(C)(Sc1ccc(CCN(CCCCC2CCCCC2)C(=O)NC2CCCCC2)cc1)C(=O)O | inconclusive: 1.66 µM [cytotoxic, partial curve, poor fit] | – |
| C[C@]12C=CC(=O)C=C1CC[C@@H]1[C@@H]2C(=O)C[C@@]2(C)[C@H]1CC[C@]2(O)C(=O)CO | – | inactive: 150% [at 23.2 µM] |

Following part:

| SMILES | Potency | viability |
| --- | --- | --- |
| CCCCN(CCCC)CC(O)c1cc(Cl)cc2c1-c1ccc(Cl)cc1C2=Cc1ccc(Cl)cc1 (stereo not given) | – | inactive: 128% |
| O=C(O)CCc1ccc(NCc2cccc(Oc3ccccc3)c2)cc1 | – | inactive: 96.5% |
| CC[C@H](C)C(=O)O[C@H]1C[C@H](O)C=C2C=C[C@H](C)[C@H](CC[C@@H](O)C[C@@H](O)CC(=O)O)[C@H]21 | – | inactive: 91.5% |
| Cc1ccccc1C(C(=O)NC1CCCCC1)N(C(=O)CNc1ccc(C#N)cc1)c1cccc(F)c1 (stereo not given) | inconclusive: 0.0209 µM [cytotoxic, full curve, poor fit] | – |
| N[C@@H](Cc1ccc(O)c(O)c1)C(=O)O | – | inactive: 139% |
| Cn1cc(-c2[nH]c3cc(NC(=O)[C@H](N)C4CCCCC4)cc4c3c2C=NNC4=O)cn1 | active: 1.18 µM | – |
| c1cncc(CN2CCC(n3ncc4c(N5CCOCC5)nc(-c5ccc6[nH]ccc6c5)nc43)CC2)c1 | inconclusive: 0.372 µM [cytotoxic, full curve, poor fit] | – |
| C=C1CCC2[C@](C)(CO)C(O)CC[C@]2(C)C1CC=C1C(=O)OCC1O (stereo not given in full) | – | inactive: 103% [at 92.2 µM] |
| CC(Oc1ccc(O)cc1)(P(=O)(O)O)P(=O)(O)O | – | inactive: 87.6% |
| C[C@H]1O[C@@H](n2cc(F)c(=O)[nH]c2=O)[C@H](O)[C@H]1O | inconclusive: 2.96 µM [cytotoxic, partial curve, poor fit] | – |
| CCN(CCO)CCCOc1ccc2c(Nc3cc(CC(=O)Nc4cccc(F)c4)[nH]n3)ncnc2c1 | inconclusive: 0.0935 µM [cytotoxic, full curve] | – |
| CN(C(=O)c1ccc(F)cc1C(F)(F)F)C1CCN(c2nnc(-c3ccnn3C)c3ccccc23)CC1 | inconclusive: 33.2 µM [cytotoxic, single point] | – |
| C[C@@H](N)c1ccc(C(=O)Nc2ccnc3[nH]ccc23)cc1 | inconclusive: 20.9 µM [cytotoxic, partial curve] | – |
| CC(C)(C)c1cc(C(C)(C)C)c(NC(=O)c2c[nH]c3ccccc3c2=O)cc1O | – | inactive: 92.3% |
| CN[C@@H]1CN(c2ccc3c(=O)c(C(=O)O)cn(-c4nccs4)c3n2)C[C@@H]1OC | – | inactive: 124% [at 23.2 µM] |
| Nc1ccccc1NC(=O)c1ccc(CNc2nccc(-c3cccnc3)n2)cc1 | active: 0.469 µM | – |
| CC(C)(S)[C@@H](N)C(=O)O | – | inactive: 105% |
| O=C(O)c1cccnc1 | – | inactive: 103% |
| CNC[C@@H](O)[C@@H](O)[C@H](O)[C@H](O)CO | inconclusive: 0.0023 µM [rising, full curve] | – |
| Cc1cccc(CN2CCN(C(c3ccccc3)c3ccc(Cl)cc3)CC2)c1 (stereo not given) | inconclusive: 29.6 µM [cytotoxic, single point] | – |
